Residue numbers refer to the chain shown, from its start.
Key:
human GLP-1 receptor [1] = target: human GLP-1 receptor (human, UniProt P43220 24-463); experiment: cell-based or functional assay
human GLP-1 receptor [2] = target: T1, human GLP-1 receptor (human, UniProt P43220 24-463); experiment: 125I-GLP-1(7-36)NH2 displacement, hGLP-1R membranes, SPA, low HSA
T1 construct: whole, on cells; Isolated cell membranes, not intact cells, stood in the assay

Amino acid sequences for entries named in this document (tags omitted). Residues count along the entry.
UniProt P43220, 24-463: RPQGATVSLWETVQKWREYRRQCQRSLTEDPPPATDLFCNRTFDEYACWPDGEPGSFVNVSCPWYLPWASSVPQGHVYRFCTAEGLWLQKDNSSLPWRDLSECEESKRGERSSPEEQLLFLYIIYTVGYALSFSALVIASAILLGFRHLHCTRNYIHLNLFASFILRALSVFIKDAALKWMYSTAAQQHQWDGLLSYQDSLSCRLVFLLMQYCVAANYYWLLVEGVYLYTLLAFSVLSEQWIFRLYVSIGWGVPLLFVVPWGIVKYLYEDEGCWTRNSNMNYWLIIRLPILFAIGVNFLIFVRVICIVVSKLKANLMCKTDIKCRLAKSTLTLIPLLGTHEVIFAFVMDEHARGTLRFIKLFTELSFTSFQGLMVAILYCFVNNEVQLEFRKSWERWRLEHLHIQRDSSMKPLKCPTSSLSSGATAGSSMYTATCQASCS

B1: GLP-1/EGF(A) compound #28 (peptide)
peptide: HGEGTFTSDVSSYLEGQAAKEFIAWLVRGRGGQAPGQAPGTNECLDNLGGCSHVCRDLEIGYECLCPEGFQLVAQRRCE
modifications: substituent #6 on 26K of SEQ ID NO. 140
For B1, the “EC50 (pM) 0% HSA” value (human GLP-1 receptor [1]) was 203 pM and the “EC50 (pM) 1% HSA” value (human GLP-1 receptor [1]) was 4060 pM.

B2: GLP-1/EGF(A) compound #34 (peptide)
peptide: B1 peptide with G2W
modifications: substituent #6 on 26K of SEQ ID NO. 141
B2 was tested, and the “EC50 (pM) 0% HSA” value (human GLP-1 receptor [1]) was 111 pM and the “EC50 (pM) 1% HSA” value (human GLP-1 receptor [1]) was 2160 pM.

B3: GLP-1/EGF(A) compound #28 (peptide)
chain: B1 peptide
modifications: substituent #6 (C20 diacid-Trx-gGlu-Ado-Ado) on 26K of SEQ ID NO. 140
Binder B3 has an IC50 (human GLP-1 receptor [2]) of 29.4 nM.
